Laboratory results: PubChem BioAssay AID1224830 (NIAID, 2016)
The deposit covers about 18,000 reagents; shown is a part drawn at random. Of all reagents, about 2,900 (16%) got an active call. 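Calls are made per well; low scores hint the gene aids the LPS response, high scores that it dampens it.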 Repeated entries: four replicate wells of each siRNA pool.

- Purpose: 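Host factors that control LPS-induced TNF expression in human macrophages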 (primary screen)
- System: human THP-1 monocytic leukaemia cells, TNF dual-luciferase reporter clone, PMA-differentiated to macrophage-like cells
- Reagents: siRNA pool against human genes, 50 nM
- Timing: LPS for 4 h, given about 3 days after siRNA transfection
- Conditions: bacterial LPS (TLR4 ligand), 10 ng/ml
- Measurement: 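Ratio of firefly to renilla light, scaled to the plate median and expressed as a robust z-score per replicate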
- Reading the numbers: TNF reporter robust z-score: higher = stronger TNF reporter response to LPS
- Rule for the call: 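Each well counts as active if its z-score is over 2.8 or under -1.5; controls are left without a call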

The first 2 entries, ahead of the listing:
no.	gene	TNF reporter robust z-score	Outcome
1	USPL1 (GeneID 10208)	-1.77	active
2	USPL1 (GeneID 10208)	-1.47	inactive

The listing, from the first entry:
no.	gene	TNF reporter robust z-score	Outcome
1	USPL1 (GeneID 10208)	-1.77	active
2	USPL1 (GeneID 10208)	-1.47	inactive
3	USPL1 (GeneID 10208)	-1.56	active
4	USPL1 (GeneID 10208)	-1.57	active
5	SELL (GeneID 6402)	4.06	active
6	SELL (GeneID 6402)	3.26	active
7	SELL (GeneID 6402)	3.62	active
8	SELL (GeneID 6402)	5.89	active
9	ECSIT (GeneID 51295)	0.07	inactive
10	ECSIT (GeneID 51295)	1.08	inactive
11	ECSIT (GeneID 51295)	2.49	inactive
12	ECSIT (GeneID 51295)	0.58	inactive
13	MRPL37 (GeneID 51253)	0.57	inactive
14	MRPL37 (GeneID 51253)	0.76	inactive
15	MRPL37 (GeneID 51253)	2.13	inactive
16	MRPL37 (GeneID 51253)	1.25	inactive
17	TRMT2A (GeneID 27037)	1.01	inactive
18	TRMT2A (GeneID 27037)	0.88	inactive
19	TRMT2A (GeneID 27037)	1.02	inactive
20	TRMT2A (GeneID 27037)	0.65	inactive
21	TSC22D4 (GeneID 81628)	1.06	inactive
22	TSC22D4 (GeneID 81628)	0.56	inactive
23	TSC22D4 (GeneID 81628)	0.69	inactive
24	TSC22D4 (GeneID 81628)	-0.13	inactive
25	CORO1C (GeneID 23603)	0.31	inactive
26	CORO1C (GeneID 23603)	2.58	inactive
27	CORO1C (GeneID 23603)	-0.39	inactive
28	CORO1C (GeneID 23603)	-0.75	inactive
29	RHOU (GeneID 58480)	-0.14	inactive
30	RHOU (GeneID 58480)	1.28	inactive
31	RHOU (GeneID 58480)	0.7	inactive
32	RHOU (GeneID 58480)	-0.11	inactive
33	NUF2 (GeneID 83540)	0.52	inactive
34	NUF2 (GeneID 83540)	1.71	inactive
35	NUF2 (GeneID 83540)	-0.4	inactive
36	NUF2 (GeneID 83540)	0.31	inactive
37	REEP2 (GeneID 51308)	-0.98	inactive
38	REEP2 (GeneID 51308)	-0.58	inactive
39	REEP2 (GeneID 51308)	-1.24	inactive
40	REEP2 (GeneID 51308)	-0.99	inactive
41	ZNF749 (GeneID 388567)	-0.12	inactive
42	ZNF749 (GeneID 388567)	-0.17	inactive
43	ZNF749 (GeneID 388567)	-0.45	inactive
44	ZNF749 (GeneID 388567)	-0.26	inactive
45	DSC3 (GeneID 1825)	-1.36	inactive
46	DSC3 (GeneID 1825)	-0.97	inactive
47	DSC3 (GeneID 1825)	-1.16	inactive
48	DSC3 (GeneID 1825)	-0.86	inactive
